This note sets out measurements from the supplement of paper PMC12009310.

Where a name gives a salt, the structure may show the parent alone. ± gives the standard deviation of the averaged measurements. The list shows a part of the results. Baselines shift from plate to plate; read single values as rough.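 The cells are a mouse kidney inner medullary collecting duct line, silenced either for the ciliary gene Rpgrip1l or with a non-targeting control siRNA.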 Where a SMILES comes first, the peptide text is derived from it. [ ]: non-standard residue; d: D form.

The subject of this test is mIMCD3. Nature of the test: robust z score of cilia incidence (% cells with single cilium) vs plate controls; higher = more ciliated cells. As to conditions: 10 µM; 48 h; siRNA: siScr.
Turning to `O=C(O)C1=CCCNC1` [Guvacine hydrochloride], the “robust z score of cilia incidence” value came out at 0.893 ± 0.32. For `CN(C)C/C=C(/c1ccc(Br)cc1)c1cccnc1` [Zimelidine dihydrochloride] the value was -2.55 ± 2.7; for `Oc1ccc(-c2nc(-c3ccc(F)cc3)c(-c3ccncc3)[nH]2)cc1`, -7.44 ± 9.6; for `CCCCCCCCCCCC1=C(O)C(=O)C=C(O)C1=O` [Embelin], 1.5 ± 2.9.

With `CCCCOC(=O)c1cc2c(cn1)[nH]c1ccccc12`, the “robust z score of cilia incidence” value was -12.7 ± 2. The figure for `COc1ccc(Nc2nccc(NCCO)n2)cc1` [Cardiogenol C hydrochloride] is 5.218 ± 0.052. For `C=CCc1cccc(/C=N/NC(=O)CN2CCN(Cc3ccccc3)CC2)c1O` the value was -49.6 ± 15. For `CC[C@H](C)C(=O)O[C@H]1C[C@H](O)C=C2C=C[C@H](C)[C@H](CC[C@@H](O)C[C@@H](O)CC(=O)O)[C@H]21` [Pravastatin sodium salt] the value was 0.388 ± 0.7; for `CCOC(=O)C1=C(COCCN)NC(C)=C(C(=O)OC)C1c1ccccc1Cl` (centres undefined) [Amlodipine besylate], -61.5 ± 14; for `CN1CCN(C2=Nc3cc(Cl)ccc3Nc3ccccc32)CC1` [Clozapine], -0.0703 ± 6.7. Regarding `O=C1Cc2c([nH]c3ccc(Br)cc23)-c2ccccc2N1` [Kenpaullone], the “robust z score of cilia incidence” value is -45.7 ± 2. For `Cc1ccc(O)c(N=Nc2ccccc2)n1` the value was -0.275 ± 1.9. The figure for `Cc1c(CC(C)(C)C(=O)O)n(Cc2ccc(Cl)cc2)c2ccc(F)cc12` is -31.2 ± 8; for `CC[N+](CC)(CC)CCOc1ccc(/C=C/c2ccccc2)cc1` it is -12 ± 11; for `CCOC(=O)c1ccc(OC(=O)CCCCCNC(=N)N)cc1` [Gabexate mesylate] it is 0.574 ± 1.8. On to `CC(=O)NCC(=O)N[C@H](CCC(=O)O)C(=O)O` [N-Acetylglycyl-D-glutamic acid] (Ac-Gly-[dE]-OH), for which the “robust z score of cilia incidence” value was found to be 0.84 ± 1.5. The figure for `Cc1ccc(/C=C2\CNC/C(=C\c3ccc(C)cc3)C2=O)cc1` is -63.2 ± 17; for `CCc1cc(-c2n[nH]c(C)c2-c2ccc3c(c2)OCCO3)c(O)cc1O` it is -46.7 ± 42; for `CNc1cc(OC)c(C(=O)NC2CCN(Cc3ccccc3)C2C)cc1Cl` (centres undefined) [Nemonapride] it is -113 ± 70.

With `COc1ccc2[nH]cc(CCNC(C)=O)c2c1` [Melatonin], the “robust z score of cilia incidence” value is -12.3 ± 3.1. For `CCCCN1CCC(CCC(=O)c2cc(Cl)c(N)cc2OC)CC1` the value was -27.7 ± 9.4; for `CC(C)NCC(O)COc1cccc2ccccc12` (centres undefined) [Propranolol hydrochloride], 0.18 ± 0.5; for `Cn1ccc2cc(NC(=O)Nc3cccnc3)ccc21`, 0.0545 ± 0.35.

On to `COc1ccc(NC(=O)c2ccc(-c3ccc(-c4noc(C)n4)cc3C)cc2)cc1N1CCN(C)CC1`, for which the “robust z score of cilia incidence” value is -47.6 ± 13.
